PubChem BioAssay AID602196 – INSERM | 2012
In all, the deposit lists about 23,000 reagents; below is a random part of them. 455 of all reagents (2%) were called active. 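Active includes both protection and sensitisation; some change values fall well beyond the stated -50 to +50 range.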 Unmarked entries are inactive. Further read-outs or replicates are left out here. The record does not give: the amount of reagent.

Purpose: 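Genes whose knock-down alters cisplatin killing of lung cancer cells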
System: human A549 lung cancer cells
Knock-down reagent: siRNA pair against human genes
Time to read-out: 48 h transfection before cisplatin; time from cisplatin to read-out not stated
Conditions: cisplatin at a dose killing half of control-siRNA cells; exact dose and duration not given
Read-out: 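Shift in cisplatin death relative to control siRNA, from -50 (all cells die) to +50 (no cells die); siRNAs harmful on their own scored 0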
Scale: two-siRNA summed score (-2 to +2): higher = both siRNAs protect from cisplatin killing; -2 means both sensitise; mean protection from cisplatin (shift in death) and protection from cisplatin (shift in death), siRNA C: higher = protection from cisplatin killing
Hit rule: 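Each siRNA scores 0 if harmful alone by LDH or WST-1, otherwise +1 if it reduces and -1 if it increases cisplatin killing; a gene is active when both siRNAs agree (sum +2 or -2)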
Calls: active = both siRNAs shift cisplatin killing the same way; inactive = no consistent shift, or siRNA harmful alone

| gene symbol | two-siRNA summed score (-2 to +2) | mean protection from cisplatin (shift in death) (%) | protection from cisplatin (shift in death), siRNA C (%) |
| --- | --- | --- | --- |
| TOMM40L | -1 | -9.8 | 7.6 |
| MLC1 | 0 | -0.4 | 1.2 |
| PRPS1 | 1 | 3.2 | -11.9 |
| PNP | 0 | -1.9 | -2.3 |
| AHSA2P | 0 | -1.2 | -0.7 |
| PTK2B | 0 | 2.4 | 9.2 |
| HCN1 | 0 | -0.1 | -17.7 |
| OR4D2 | 1 | 14.3 | 14.1 |
| OSBPL5 | 1 | 19.8 | 7 |
| LOC346950 | -1 | -7.4 | 1.3 |
| SLU7 | 0 | -0.4 | -5.7 |
| HLA-DQB2 | 0 | 5.1 | 11.2 |
| GINS2 | 0 | -23 | -11 |
| LRFN3 | 1 | 16.2 | 19.3 |
| LOC338902 | 0 | 7.2 | 6.1 |
| SLITRK1 | 0 | 1.2 | -2.1 |
| CHST6 | 0 | 11.5 | 10.8 |
| LRRC17 | -1 | -10.8 | -9 |
| SNRNP48 | 0 | 1 | -2.8 |
| FBP1 | -2 (active) | -17.6 | -12.8 |
| MGAM2 | 0 | 0.2 | 7.5 |
| LOC284964 | 0 | 21.3 | 24.8 |
| TSPYL6 | 0 | 1.3 | 1 |
| LINC01139 | 0 | -3 | -10.5 |
| DST | 1 | 8 | -3.1 |
| DET1 | 0 | 0.1 | -13.2 |
| BMAL1 | 0 | 15.6 | 26.3 |
| DAP | -1 | -5.9 | -19.6 |
| TBC1D10A | -1 | -16.4 | -24.3 |
| CEP250 | 1 | 10.6 | 17.5 |
| NOL12 | -1 | -2.7 | -15.5 |
| LOC390732 | -1 | -15.7 | -8.1 |
| PGF | 0 | 3.1 | -3.7 |
| HHLA1 | -1 | -10.7 | -28.3 |
| MANF | 0 | -2 | -3 |

Next part; the last 3 above are carried over.
| gene symbol | two-siRNA summed score (-2 to +2) | mean protection from cisplatin (shift in death) (%) | protection from cisplatin (shift in death), siRNA C (%) |
| --- | --- | --- | --- |
| PGF | 0 | 3.1 | -3.7 |
| HHLA1 | -1 | -10.7 | -28.3 |
| MANF | 0 | -2 | -3 |
| H3C8 | 1 | 17.9 | 29.9 |
| ZNF275 | 1 | 13.7 | 9.6 |
| SMN1 | 0 | 3.3 | 10.3 |
| C1QA | 1 | 11.7 | 5 |
| TTYH3 | 0 | 9.5 | 20.7 |
| GTF2H1 | 0 | -4.7 | -6 |
| SLC25A34 | 1 | 13.1 | 7 |
| TLE3 | 0 | 3.2 | 1.7 |
| AHNAK | 0 | 6.7 | 1.3 |
| ZDHHC14 | 0 | 3.5 | 2.5 |
| LOC390299 | 0 | 6.6 | 11.5 |
| GBA1 | 0 | 1.2 | -17 |
| SPTLC1 | -1 | -2.1 | 7.7 |
| FMN1 | 0 | 9.8 | 9.6 |
| DEK | 0 | 9.4 | 7.8 |
| WFS1 | 0 | 6 | 2.5 |
| CHMP3 | 0 | 2.3 | 9 |
| FAM209A | 1 | 14.4 | 23.3 |
| ATP11C | 1 | 12.9 | 15.4 |
| ADCY6 | 0 | -1.9 | -4.4 |
| RPS27A | 0 | 14.4 | 7.6 |
| TYRO3 | 1 | 5 | -5.6 |
